According to PMC10404973:
Results are given in words; binding and its absence hold for the method and conditions named. In cells and extracts the contact can be indirect. Some results given as binding are weak or reduced against the parent protein; the word gives no strength.

Sequences of proteins named here, by UniProt entry; tags and fusion partners are left off.
UniProt Q03164: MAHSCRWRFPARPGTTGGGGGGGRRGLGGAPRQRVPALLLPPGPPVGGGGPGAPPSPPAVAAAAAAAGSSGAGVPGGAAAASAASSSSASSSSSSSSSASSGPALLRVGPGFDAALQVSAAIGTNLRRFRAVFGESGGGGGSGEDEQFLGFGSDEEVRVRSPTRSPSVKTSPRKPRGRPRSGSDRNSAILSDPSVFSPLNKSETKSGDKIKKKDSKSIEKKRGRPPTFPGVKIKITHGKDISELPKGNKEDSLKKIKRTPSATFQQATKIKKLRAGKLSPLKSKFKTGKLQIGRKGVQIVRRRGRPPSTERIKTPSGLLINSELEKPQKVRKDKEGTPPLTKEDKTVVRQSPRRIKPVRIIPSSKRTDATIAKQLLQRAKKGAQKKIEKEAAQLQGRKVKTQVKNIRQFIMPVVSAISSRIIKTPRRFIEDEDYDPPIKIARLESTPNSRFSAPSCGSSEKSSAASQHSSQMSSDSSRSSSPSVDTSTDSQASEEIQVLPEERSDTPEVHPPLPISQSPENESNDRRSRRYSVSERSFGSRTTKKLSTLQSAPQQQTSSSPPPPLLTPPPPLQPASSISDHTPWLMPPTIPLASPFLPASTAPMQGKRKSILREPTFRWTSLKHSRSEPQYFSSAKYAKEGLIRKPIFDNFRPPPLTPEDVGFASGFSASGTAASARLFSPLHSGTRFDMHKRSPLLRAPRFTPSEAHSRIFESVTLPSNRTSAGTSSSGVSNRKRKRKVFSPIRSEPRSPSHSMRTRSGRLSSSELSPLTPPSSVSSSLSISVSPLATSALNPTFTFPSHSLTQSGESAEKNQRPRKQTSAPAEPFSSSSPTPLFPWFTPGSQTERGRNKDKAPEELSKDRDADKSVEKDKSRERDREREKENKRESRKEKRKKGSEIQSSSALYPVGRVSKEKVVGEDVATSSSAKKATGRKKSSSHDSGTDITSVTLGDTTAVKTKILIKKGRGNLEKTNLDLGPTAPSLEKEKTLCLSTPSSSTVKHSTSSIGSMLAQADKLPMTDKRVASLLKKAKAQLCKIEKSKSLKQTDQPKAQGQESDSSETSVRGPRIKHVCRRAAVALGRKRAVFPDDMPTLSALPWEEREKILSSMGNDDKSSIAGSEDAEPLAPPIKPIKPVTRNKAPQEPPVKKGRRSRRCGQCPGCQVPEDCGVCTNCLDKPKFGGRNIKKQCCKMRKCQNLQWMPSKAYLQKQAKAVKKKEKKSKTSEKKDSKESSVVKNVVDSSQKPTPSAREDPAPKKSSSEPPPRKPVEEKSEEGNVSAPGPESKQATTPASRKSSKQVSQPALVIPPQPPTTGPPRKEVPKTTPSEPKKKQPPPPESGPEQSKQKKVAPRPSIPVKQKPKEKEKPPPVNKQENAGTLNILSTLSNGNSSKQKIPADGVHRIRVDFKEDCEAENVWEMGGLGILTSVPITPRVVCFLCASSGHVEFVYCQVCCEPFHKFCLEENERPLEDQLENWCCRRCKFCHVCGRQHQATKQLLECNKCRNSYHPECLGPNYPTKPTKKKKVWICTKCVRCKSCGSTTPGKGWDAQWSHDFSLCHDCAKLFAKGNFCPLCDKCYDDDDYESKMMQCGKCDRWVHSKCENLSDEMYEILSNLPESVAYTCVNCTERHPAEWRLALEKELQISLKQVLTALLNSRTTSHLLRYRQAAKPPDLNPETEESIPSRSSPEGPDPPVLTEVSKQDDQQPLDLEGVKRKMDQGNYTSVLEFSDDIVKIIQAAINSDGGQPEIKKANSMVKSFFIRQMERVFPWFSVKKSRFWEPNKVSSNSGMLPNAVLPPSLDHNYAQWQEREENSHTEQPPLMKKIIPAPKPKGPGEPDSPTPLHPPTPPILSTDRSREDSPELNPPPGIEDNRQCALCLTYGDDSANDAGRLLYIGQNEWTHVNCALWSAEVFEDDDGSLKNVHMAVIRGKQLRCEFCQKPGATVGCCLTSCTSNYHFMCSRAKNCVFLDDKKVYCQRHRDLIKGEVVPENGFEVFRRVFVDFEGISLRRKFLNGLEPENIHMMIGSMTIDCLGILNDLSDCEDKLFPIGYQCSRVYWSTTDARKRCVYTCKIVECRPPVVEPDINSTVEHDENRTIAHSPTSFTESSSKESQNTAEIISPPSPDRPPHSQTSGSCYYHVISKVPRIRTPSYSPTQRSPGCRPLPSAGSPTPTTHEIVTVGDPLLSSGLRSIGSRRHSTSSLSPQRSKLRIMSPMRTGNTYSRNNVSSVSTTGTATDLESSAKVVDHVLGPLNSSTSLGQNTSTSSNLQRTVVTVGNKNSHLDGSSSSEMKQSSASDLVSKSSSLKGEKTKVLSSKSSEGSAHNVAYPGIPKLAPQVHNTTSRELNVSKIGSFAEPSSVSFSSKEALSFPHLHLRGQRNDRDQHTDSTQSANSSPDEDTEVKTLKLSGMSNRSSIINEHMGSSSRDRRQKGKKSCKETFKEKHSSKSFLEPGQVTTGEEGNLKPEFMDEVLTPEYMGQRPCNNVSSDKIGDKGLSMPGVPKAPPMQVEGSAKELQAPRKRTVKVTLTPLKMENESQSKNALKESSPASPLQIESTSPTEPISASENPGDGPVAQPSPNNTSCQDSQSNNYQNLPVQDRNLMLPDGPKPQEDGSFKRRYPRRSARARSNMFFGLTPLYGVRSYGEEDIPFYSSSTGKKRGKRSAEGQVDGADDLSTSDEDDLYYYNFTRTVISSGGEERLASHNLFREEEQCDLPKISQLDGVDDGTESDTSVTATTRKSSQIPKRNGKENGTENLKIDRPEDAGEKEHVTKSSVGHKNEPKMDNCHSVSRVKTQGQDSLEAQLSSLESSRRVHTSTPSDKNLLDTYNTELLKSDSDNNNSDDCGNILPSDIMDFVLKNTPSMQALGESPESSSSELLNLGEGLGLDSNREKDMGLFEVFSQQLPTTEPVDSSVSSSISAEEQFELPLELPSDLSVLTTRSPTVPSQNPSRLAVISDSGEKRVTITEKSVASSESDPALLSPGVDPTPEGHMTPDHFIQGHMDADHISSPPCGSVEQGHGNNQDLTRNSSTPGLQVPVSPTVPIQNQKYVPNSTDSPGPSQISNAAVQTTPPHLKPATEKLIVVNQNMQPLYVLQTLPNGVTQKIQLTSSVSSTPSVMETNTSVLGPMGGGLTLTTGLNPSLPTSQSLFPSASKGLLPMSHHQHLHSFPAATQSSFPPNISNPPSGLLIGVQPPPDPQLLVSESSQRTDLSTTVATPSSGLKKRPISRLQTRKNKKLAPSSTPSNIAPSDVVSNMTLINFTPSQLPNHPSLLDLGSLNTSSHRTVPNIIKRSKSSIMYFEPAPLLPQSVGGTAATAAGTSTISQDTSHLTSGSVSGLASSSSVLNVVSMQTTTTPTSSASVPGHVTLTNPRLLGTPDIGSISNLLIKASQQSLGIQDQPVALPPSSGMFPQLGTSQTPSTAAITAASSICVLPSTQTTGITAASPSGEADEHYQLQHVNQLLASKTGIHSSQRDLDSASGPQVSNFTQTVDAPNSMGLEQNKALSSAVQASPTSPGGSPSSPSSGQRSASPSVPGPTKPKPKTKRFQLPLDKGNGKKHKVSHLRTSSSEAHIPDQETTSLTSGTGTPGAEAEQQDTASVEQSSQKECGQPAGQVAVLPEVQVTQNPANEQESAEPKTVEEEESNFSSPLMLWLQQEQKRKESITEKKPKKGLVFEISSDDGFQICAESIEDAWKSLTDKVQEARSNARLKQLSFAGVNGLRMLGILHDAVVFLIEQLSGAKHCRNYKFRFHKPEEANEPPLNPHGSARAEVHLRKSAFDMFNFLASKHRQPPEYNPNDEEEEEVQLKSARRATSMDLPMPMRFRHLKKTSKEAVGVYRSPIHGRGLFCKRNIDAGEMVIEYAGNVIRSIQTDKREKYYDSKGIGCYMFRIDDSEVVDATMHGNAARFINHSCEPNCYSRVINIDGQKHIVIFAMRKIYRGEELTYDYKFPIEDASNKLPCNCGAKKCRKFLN

Target: MLL-VC210 (UniProt Q03164)
Assay: split reporter; BiFC in HEK293T cells co-transfected with MLL-VC210 and VN210-menin; cells treated with complexes SM_1 or SM_2

binding: binds
B1: VN210-menin (protein, UniProt O00255 1-610)
chain: MGLKAAQKTLFPLRSIDDVVRLFAAELGREEPDLVLLSLVLGFVEHFLAVNRVIPTNVPELTFQPSPAPDPPGGLTYFPVADLSIIAALYARFTAQIRGAVDLSLYPREGGVSSRELVKKVSDVIWNSLSRSYFKDRAHIQSLFSFITGTKLDSSGVAFAVVGACQALGLRDVHLALSEDHAWVVFGPNGEQTAEVTWHGKGNEDRRGQTVNAGVAERSWLYLKGSYMRCDRKMEVAFMVCAINPSIDLHTDSLELLQLQQKLLWLLYDLGHLERYPMALGNLADLEELEPTPGRPDPLTLYHKGIASAKTYYRDEHIYPYMYLAGYHCRNRNVREALQAWADTATVIQDYNYCREDEEIYKEFFEVANDVIPNLLKEAASLLEAGEERPGEQSQGTQSQGSALQDPECFAHLLRFYDGICKWEEGSPTPVLHVGWATFLVQSLGRFEGQVRQKVRIVSREAEAAEAEEPWGEEAREGRRRGPRRESKPEEPPPPKKPALDKGLGTGQGAVSGPPRKPPGTVAGTARGPEGGSTAQVPAPTASPPPEGPVLTFQSEKMKGMKELLVATKINSSAIKLQLTAQSQVQMKKQKVSTPSDYTLSFLKRQRKGL
